# Percent effect of library compounds

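Growth of Mycobacterium tuberculosis over 4 days (cholesterol / DPPC medium with tyloxapol); the read-out is not stated. Concentration: 500 µM. Higher reads as more growth inhibition (inferred: compounds with an IC50 in retests scored well above the rest). Size under these conditions: about 18,000 compounds, about 900 of them at 50% or above in at least one test.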

Results are given as percent effect. The controls that fix the scale are not given in the record; negative values are as filed. This is an unselected part of the compounds tested.

Compound	Percent Effect
CC(C)OCCC(=O)NCC(C)(C)N1CC[S+]([O-])CC1	9.783
CC(O)(CNc1ncccc1F)C1CCCC1 (configuration not stated)	65.12
CNC(=O)c1cc(C)n(C)n1	5.559
CC(N)C(=O)Nc1ccc(-n2cncn2)cc1 (configuration not stated)	-4.205
Cc1ccc(NC(=O)CN2C(=O)CCC2=O)cc1C	30.18
OCCCN1CCC(=Cc2ccccc2)CC1	73.75
COC(=O)c1cc(F)c[nH]1	-16.17
Cc1nc(C)c(C(=O)NCCS(=O)(=O)CC(C)C)s1	-9.992
Cn1ccc2ccnc(N3CCC(C(N)=O)CC3)c21	0.4883
COc1ccccc1CC1(O)CCNCC1	-4.836
Cc1c([C@@H]2OCC[C@H]2N)cnn1C	-1.442
CC1Cc2ccccc2N1CCN (configuration not stated)	74.04
Cc1noc(C)c1S(=O)(=O)NCC1CCCOC1 (configuration not stated)	-7.11
O=c1oc(-c2ccccc2)nn1CN1CCCCC1	-6.914
O=C(c1cccnc1N1CCCCC1)N1CCCC1	-0.8954
O=C(CCNc1ncc(Br)cn1)NCc1ccccn1	-26.24
CN1CCN(C(=O)CC2Cc3ccccc3C2)CC1	60.88
CCCn1cnnc1CNC	12.15
CN(C)C1CCN(CC(=O)NCCn2cnnn2)C1 (configuration not stated)	-12.95
CNCc1ccc(C(=O)NC)o1	5.547
CC1CCN(CCNC(=O)c2cnccn2)CC1	-12.94
O=C1CCN(CCOc2cc(F)cc(Br)c2)CCN1	8.649
OCCN(CCO)Cc1c[nH]cn1	3.899
COCCNC1(C(=O)NCC2CC2)CCCC1	36.64
Cc1nn(CCO)c(C)c1CNCCCNS(C)(=O)=O	-15.97
COc1ccc(CN2CCCC(CO)C2)cc1OC (configuration not stated)	7.901
Nc1nc(N2CCCNC(=O)C2)cc([C@H]2C[C@@H](O)C2)n1	10.71
CC(C)NC(=O)NCCCn1nc2n(c1=O)CCCC2	2.878
COC(C)c1noc(C2CCN(C(=O)N(C)C)CC2)n1 (configuration not stated)	2.099
CN(C)c1ccc(C(=O)NCC2CCCO2)cc1 (configuration not stated)	20.24
CC(C)c1cc(C(=O)NC(C(N)=O)C(C)C)n[nH]1 (configuration not stated)	-11.08
COc1ncccc1C(=O)N(C)c1ncccc1C#N	-5.39
Cc1ccc(NCC(=O)N(C)C)cc1-n1cnnn1	-1.226
NC(=O)CC1CNC1	-1.029
CN(Cc1cc2ccccc2s1)C(=O)[C@H]1C[C@@H](O)CN1	10.25
NC(=O)C1CCN(C(=O)C2CCOCC2)CC1	-3.29
CN(C)C(=O)Nc1cc2c(cc1Br)OCCO2	-0.8393
CSc1ncc(C(=O)N2CC[C@](C)(O)[C@H](C)C2)cn1	-7.482
Nc1nnc(SCC2COc3ccccc3O2)s1 (configuration not stated)	-24.57
NC(=O)C1CCCN(S(=O)(=O)c2cc(Br)ccc2F)C1 (configuration not stated)	-20.59
CC1CN(C(=O)CCc2ccccc2)CCO1 (configuration not stated)	34.09
Nc1ncccc1CN1CCCN(C2CCCC2)CC1	-16.19
NC1CCCN(C(=O)C2CC2)C1 (configuration not stated)	-0.8237
CCCNC(=O)CNc1cc(F)c(OC)c(F)c1	61.51
Cc1nn(CC(=O)N[C@@H]2CCNC[C@H]2O)c(C)c1C	-17.26
CSCC(CCO)Nc1ncccc1C(F)(F)F (configuration not stated)	33.48
CSCCC(O)C(=O)NCC1(Cn2cccn2)CC1 (configuration not stated)	0.4147
CO[C@H]1CN[C@H](c2nncn2C)C1	5.896
CC(C)(CNC(=O)c1[nH]c2ccccc2c1Cl)C(N)=O	-19.34
OC(CN1CCn2ccnc2C1)c1ccc(F)cc1 (configuration not stated)	37.52
CCC(Nc1cccc(OC)c1)C(=O)NCCCN (configuration not stated)	37.48
COCC(C)Oc1ccc(Cl)cc1S(N)(=O)=O (configuration not stated)	11.83
COCCC(NS(N)(=O)=O)c1ccc(Cl)c(Cl)c1 (configuration not stated)	20.88
CCSc1ccc(C(=O)NCCc2nnc[nH]2)cn1	-8.896
C[C@H](N)c1ncccc1F	-7.815
O=C(C1CCc2ccccc21)N1CCS(=O)(=O)CC1 (configuration not stated)	-7.684
CC(C(=O)Nc1ccc(C(N)=O)cc1)N1CCCC1 (configuration not stated)	-3.723
Cc1cc(N)nc(SCc2cc(C)on2)n1	5.575
CNC[C@@H]1CCC(=O)N1	-7.037
NC(=O)CN(CCc1ccncc1)Cc1ccccc1	35.82
CN(C)CCOc1ccc(NS(C)(=O)=O)cc1Cl	-18.47
O=C(CCC1CCCCC1)N1CC[S+]([O-])CC1	29.84
N[C@@H]1CCO[C@H]1c1cncc(Br)c1	19.87
COc1ccc(-c2nc(CCN)co2)cc1	78.68
COc1cccc(CN)n1	6.173
CCO[C@H]1CN(Cc2cc(C(C)=O)cn2C)C[C@@H]1O	7.951
CCC(COC)NCc1nnc2n1CCCC2 (configuration not stated)	-2.357
CCC1(CNC(=O)NCC(C)(C)S(C)(=O)=O)CCC1	23.24
O=C(NCC1(Cn2ccnc2)CC1)C1CCOC1 (configuration not stated)	9.71
CN(CCCNC(=O)c1cnccn1)CC(F)(F)F	26.61
CN1CCN(C(=O)CC#N)CC1	-15.65
NC1CCN(C(=O)c2ccccc2O)CC1	12.44
NC1CCCN(Cc2ccccc2)C1 (configuration not stated)	51.65
CCNC(=O)c1cc(N2CCCC(C)CC2)ccn1 (configuration not stated)	57.85
Cc1ccc(C(C)NC(=O)CNC(=O)c2ccoc2)o1 (configuration not stated)	3.698
Cc1ccccc1C(C)NC(=O)CSc1nnc[nH]1 (configuration not stated)	-0.1444
Cc1ccc(-c2noc(C(C)N)n2)cc1F (configuration not stated)	71.68
CC(Cn1ccnc1)NC(=O)Cn1cc(Br)ccc1=O (configuration not stated)	-18.86
CC(C)c1nsc(NCC(O)CN2CCOCC2)n1 (configuration not stated)	-9.575
C=C(C)CN(C)C(CO)c1ccc(OC)cc1 (configuration not stated)	3.089
CC(CS(C)(=O)=O)NC(=O)C(C)(C)C (configuration not stated)	4.529
CCc1nc(C(C)(C)N)[nH]c(=O)c1C	-7.82
Cc1cncc(-c2ccc(S(N)(=O)=O)cc2F)c1	18.43
c1coc(CNCc2ccc3c(c2)OCCO3)c1	-0.04457
O=C(CSc1nncs1)NC1COc2ccccc21 (configuration not stated)	17.38
OC1CCNC2(CCC2)C1 (configuration not stated)	-7.496
CC(C)(C)c1cc(NC(=O)CN2CCC(O)CC2)on1	2.752
CC(CC(=O)N1CCOCC1)NC(=O)c1ccccc1 (configuration not stated)	22.82
CCN(CC)S(=O)(=O)c1ccc(OC)c(NC(C)=O)c1	-12.99
COc1ccccc1N1CCCC(NC(C)=O)C1=O (configuration not stated)	-0.2778
CS(=O)(=O)c1ccccc1NC(=O)CN1CCCCC1	15.55
CC(=O)c1ccc(N2C[C@@H](CN(C)C)[C@@H](CO)C2)nc1	2.527
CCCN(CC(=O)N(C)C)Cc1ccc(C#N)cc1	23.44

Some entries from above, unchanged:

{"compound": "CCC(COC)NCc1nnc2n1CCCC2", "stereo": "configuration not stated", "Percent Effect": -2.357}
{"compound": "NC(=O)CC1CNC1", "Percent Effect": -1.029}
{"compound": "COc1ncccc1C(=O)N(C)c1ncccc1C#N", "Percent Effect": -5.39}
{"compound": "CC(N)C(=O)Nc1ccc(-n2cncn2)cc1", "stereo": "configuration not stated", "Percent Effect": -4.205}
{"compound": "CN(Cc1cc2ccccc2s1)C(=O)[C@H]1C[C@@H](O)CN1", "Percent Effect": 10.25}
{"compound": "O=C1CCN(CCOc2cc(F)cc(Br)c2)CCN1", "Percent Effect": 8.649}
{"compound": "CC1CN(C(=O)CCc2ccccc2)CCO1", "stereo": "configuration not stated", "Percent Effect": 34.09}
{"compound": "CC(C)c1nsc(NCC(O)CN2CCOCC2)n1", "stereo": "configuration not stated", "Percent Effect": -9.575}
{"compound": "NC(=O)C1CCCN(S(=O)(=O)c2cc(Br)ccc2F)C1", "stereo": "configuration not stated", "Percent Effect": -20.59}
{"compound": "CN(C)c1ccc(C(=O)NCC2CCCO2)cc1", "stereo": "configuration not stated", "Percent Effect": 20.24}
{"compound": "Nc1nnc(SCC2COc3ccccc3O2)s1", "stereo": "configuration not stated", "Percent Effect": -24.57}

From ChEMBL document CHEMBL3988442, “University of Dundee, Small-Polar-MMV Screening Library” (2021).